PubChem BioAssay AID1259308 | NCATS, 2017
The deposit covers about 59,000 reagents; below is an unselected part. In the full data, about 1,510 (2.6%) got an active call. 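Calls use total luciferase alone and ignore viability, so some active siRNAs may act by altering cell number.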 Further read-outs or replicates are left out here. No sequences are given here.

Aim: 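Knock-downs that increase output of a recombinant reporter protein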 (primary screen)
Cell system: human HEK293 embryonic kidney cells stably expressing firefly luciferase (HEK-CMV-Luc2-Hygro)
Reagents: single siRNA against human genes, 0.8 pmol siRNA per well
Duration: 72 h
Detection: 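Reporter luminescence and viable-cell signal on separate replicate plates, given as percent of non-targeting control and median/MAD z-scores, plus per-cell luciferase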
Reading the numbers: total luciferase, z-score: higher = more reporter protein produced
Call rule: 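Active when the median/MAD z-score for overall luciferase is greater than 3; a gene was taken forward for validation with new siRNAs if at least two of its three siRNAs passed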
Meaning of the calls: active = raised luciferase; inactive = no rise

Knock-down of CASQ1 [SID160736821] gave: total luciferase, z-score 0.85; inactive.
For CASQ1 [SID160736832] the deposit lists total luciferase, z-score -0.617; inactive.
CASQ1 [SID160736841] showed total luciferase, z-score 0.442; inactive.
H3C3 [SID160719895] showed total luciferase, z-score 1.2; inactive.
With knock-down of H3C3 [SID160724157], the screen gave total luciferase, z-score 0.0219; inactive.
Depletion of H3C3 [SID160735032] resulted in: total luciferase, z-score 0.109; inactive.
After knock-down of DOLK [SID160731937], the screen gave total luciferase, z-score -0.342; inactive.
With knock-down of DOLK [SID160731944], the screen gave total luciferase, z-score -0.941; inactive.
After knock-down of DOLK [SID160731950], the screen gave total luciferase, z-score 0.0805; inactive.
After knock-down of ZNF169 [SID160760369], the record shows total luciferase, z-score 0.225; inactive.
For ZNF169 [SID160760370], the values are total luciferase, z-score -0.645; inactive.
ZNF169 [SID160760371] showed total luciferase, z-score 0.111; inactive.
